Results deposited as PubChem BioAssay AID504786 (Drosophila RNAi Screening Center, 2011).

Test: 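Positive regulators of HIF-driven reporter output in Drosophila cells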 (primary screen)
System: Drosophila S2 cells with a stable HIF luciferase reporter
Reagents: long dsRNA against Drosophila genes, about 0.2 µg dsRNA per well of a 384-well plate
Timing: three days of knock-down, then 20 h of DFO before reading
Treatment: desferrioxamine (DFO) at 100 µM, an iron chelator that mimics hypoxia, for 20 h
Read-out: 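HIF reporter luminescence in cells given 100 µM DFO for 20 h, using the mouse ldh-a hypoxia-response element, scored as per-plate z-scores; higher means greater loss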
Reading the numbers: z-score: higher = stronger loss of HIF reporter signal
The screen tested about 21,000 reagents; shown is a random part of those with a known target gene and a result. 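Primary screen; positive scores mean lost reporter signal, so the sign may be inverted from the usual convention.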 Not all columns of the deposit are shown.

predicted target	z-score, replicate 1
nan	-0.3
Muc68E	-0.4
CG15366 (retired record)	0.1
CG15337	-0.3
CG9121	-0.1
bam	-0.4
Gmppa	-0.2
Dcr-2	-0.3
hts	-0.5
Ctl1	-0.2
CG10702	-0.3
CG12682	-0.2
Coop	-0.1
Blos4	-0.3
Vha36-3	-0.3
CG17724	-0.3
Prp19	1.2

Next part, starting with the last 2 of the part before.
predicted target	z-score, replicate 1
CG17724	-0.3
Prp19	1.2
Spc105R	2.4
CG31007	-0.2
Icmt	-0.2
Or85d	-0.4
Dhc62B	-0.2
CG30480	-0.3
CG10348	-0.4
Dus4	-0.1
CG15534	-0.5
OXA1L	0.2
CG6836	-0.3
CG5781	-0.3
EloB	0.7
CG9686	0.1
Thor	-0.4
Noa36	-0.3
CG33631	-0.2
